# Test results reported in the supplement of paper PMC6411743.
# Amino acid sequences for entries named in this document (tags omitted). A change or cut given only in a name is not applied to a line headed by its entry.
# UniProt O75935, whole entry: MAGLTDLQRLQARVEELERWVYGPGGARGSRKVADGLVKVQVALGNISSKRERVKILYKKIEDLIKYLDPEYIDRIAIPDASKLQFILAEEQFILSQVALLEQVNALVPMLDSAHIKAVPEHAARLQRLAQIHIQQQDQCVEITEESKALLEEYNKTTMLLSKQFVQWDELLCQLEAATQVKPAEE
# UniProt O75190: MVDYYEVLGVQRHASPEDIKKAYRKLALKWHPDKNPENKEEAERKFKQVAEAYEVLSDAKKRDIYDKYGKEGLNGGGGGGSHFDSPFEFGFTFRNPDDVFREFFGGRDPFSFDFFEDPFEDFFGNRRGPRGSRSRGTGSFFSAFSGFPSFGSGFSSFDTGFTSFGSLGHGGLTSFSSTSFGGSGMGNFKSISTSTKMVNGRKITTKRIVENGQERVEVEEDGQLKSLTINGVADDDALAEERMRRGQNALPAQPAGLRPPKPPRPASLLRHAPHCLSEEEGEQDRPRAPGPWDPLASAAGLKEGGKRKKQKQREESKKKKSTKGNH
# UniProt O75582, whole entry, looked up: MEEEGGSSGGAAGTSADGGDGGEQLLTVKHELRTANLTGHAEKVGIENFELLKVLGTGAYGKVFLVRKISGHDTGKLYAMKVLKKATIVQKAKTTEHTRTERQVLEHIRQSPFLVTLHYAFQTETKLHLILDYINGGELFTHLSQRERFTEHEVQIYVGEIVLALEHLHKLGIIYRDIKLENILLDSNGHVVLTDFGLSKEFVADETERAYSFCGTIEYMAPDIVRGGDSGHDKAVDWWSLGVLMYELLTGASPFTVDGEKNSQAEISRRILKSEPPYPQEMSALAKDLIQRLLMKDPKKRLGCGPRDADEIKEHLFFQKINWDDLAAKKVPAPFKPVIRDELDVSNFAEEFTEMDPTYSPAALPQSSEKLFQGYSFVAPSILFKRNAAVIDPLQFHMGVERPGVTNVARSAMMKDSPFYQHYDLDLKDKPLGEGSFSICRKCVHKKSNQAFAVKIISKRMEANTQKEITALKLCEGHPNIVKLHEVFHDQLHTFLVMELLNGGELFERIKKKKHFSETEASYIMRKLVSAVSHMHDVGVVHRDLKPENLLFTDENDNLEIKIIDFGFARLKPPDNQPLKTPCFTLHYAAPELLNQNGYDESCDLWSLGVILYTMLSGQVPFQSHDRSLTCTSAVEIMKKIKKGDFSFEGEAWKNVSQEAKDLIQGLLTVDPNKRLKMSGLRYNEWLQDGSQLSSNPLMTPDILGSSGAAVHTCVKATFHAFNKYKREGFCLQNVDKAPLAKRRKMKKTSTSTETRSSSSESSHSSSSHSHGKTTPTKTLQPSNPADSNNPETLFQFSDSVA
# UniProt O75570: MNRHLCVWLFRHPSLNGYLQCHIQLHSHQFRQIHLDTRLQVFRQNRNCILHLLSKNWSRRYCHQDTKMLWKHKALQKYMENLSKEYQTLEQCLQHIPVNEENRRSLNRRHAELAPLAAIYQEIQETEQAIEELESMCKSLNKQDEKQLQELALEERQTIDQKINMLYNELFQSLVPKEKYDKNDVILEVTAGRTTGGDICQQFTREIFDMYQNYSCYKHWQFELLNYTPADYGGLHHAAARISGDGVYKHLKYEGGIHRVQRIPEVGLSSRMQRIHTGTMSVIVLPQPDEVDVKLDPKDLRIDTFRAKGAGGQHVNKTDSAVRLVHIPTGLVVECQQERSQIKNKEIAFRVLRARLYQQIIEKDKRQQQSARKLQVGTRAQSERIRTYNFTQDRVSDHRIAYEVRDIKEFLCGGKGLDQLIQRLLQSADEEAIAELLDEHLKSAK
# UniProt O60762: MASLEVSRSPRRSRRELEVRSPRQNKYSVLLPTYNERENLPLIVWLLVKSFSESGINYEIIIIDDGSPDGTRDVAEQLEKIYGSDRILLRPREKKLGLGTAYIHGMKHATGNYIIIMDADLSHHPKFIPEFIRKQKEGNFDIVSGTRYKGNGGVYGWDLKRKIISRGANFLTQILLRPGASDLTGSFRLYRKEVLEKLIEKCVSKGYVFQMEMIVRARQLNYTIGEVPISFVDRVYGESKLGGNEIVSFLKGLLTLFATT
# UniProt O94916: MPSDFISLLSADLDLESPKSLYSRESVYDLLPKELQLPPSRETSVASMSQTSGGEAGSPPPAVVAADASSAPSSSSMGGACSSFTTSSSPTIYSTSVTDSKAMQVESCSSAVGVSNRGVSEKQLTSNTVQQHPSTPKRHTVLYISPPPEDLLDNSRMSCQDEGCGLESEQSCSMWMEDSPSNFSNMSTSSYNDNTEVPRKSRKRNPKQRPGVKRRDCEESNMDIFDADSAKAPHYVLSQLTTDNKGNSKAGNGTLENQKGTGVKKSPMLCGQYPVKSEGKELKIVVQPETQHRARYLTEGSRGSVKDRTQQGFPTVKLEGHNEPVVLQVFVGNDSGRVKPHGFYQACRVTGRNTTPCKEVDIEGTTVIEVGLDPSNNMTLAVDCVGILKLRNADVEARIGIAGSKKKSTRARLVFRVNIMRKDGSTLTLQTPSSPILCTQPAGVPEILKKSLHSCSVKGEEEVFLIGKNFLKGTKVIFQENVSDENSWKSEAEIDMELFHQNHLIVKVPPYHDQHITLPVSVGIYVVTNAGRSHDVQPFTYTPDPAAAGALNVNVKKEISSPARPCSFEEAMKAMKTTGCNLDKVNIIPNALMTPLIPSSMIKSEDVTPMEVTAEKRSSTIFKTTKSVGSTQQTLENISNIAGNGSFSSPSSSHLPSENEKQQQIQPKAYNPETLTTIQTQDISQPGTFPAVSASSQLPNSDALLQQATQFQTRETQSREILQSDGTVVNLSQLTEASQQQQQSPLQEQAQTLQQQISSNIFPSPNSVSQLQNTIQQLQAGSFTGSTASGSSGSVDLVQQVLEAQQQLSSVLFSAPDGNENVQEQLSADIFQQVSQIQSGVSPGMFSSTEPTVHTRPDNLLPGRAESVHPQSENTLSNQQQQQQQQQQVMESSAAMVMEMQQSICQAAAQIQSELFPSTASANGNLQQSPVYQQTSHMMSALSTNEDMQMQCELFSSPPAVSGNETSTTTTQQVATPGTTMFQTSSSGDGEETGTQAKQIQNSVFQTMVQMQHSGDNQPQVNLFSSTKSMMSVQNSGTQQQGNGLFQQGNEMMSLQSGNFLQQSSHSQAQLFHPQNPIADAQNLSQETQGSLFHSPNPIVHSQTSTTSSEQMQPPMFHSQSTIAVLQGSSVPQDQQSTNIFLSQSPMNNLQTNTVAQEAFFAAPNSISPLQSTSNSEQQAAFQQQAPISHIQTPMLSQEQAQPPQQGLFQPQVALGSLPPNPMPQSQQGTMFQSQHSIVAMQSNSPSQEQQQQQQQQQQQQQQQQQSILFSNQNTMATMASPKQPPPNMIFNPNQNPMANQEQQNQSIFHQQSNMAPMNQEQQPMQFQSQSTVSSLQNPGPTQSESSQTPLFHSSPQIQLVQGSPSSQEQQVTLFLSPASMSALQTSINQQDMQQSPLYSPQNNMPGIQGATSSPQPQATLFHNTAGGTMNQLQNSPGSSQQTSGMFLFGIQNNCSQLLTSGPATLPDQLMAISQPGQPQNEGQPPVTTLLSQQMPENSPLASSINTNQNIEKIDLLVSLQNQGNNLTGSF
# UniProt O94806: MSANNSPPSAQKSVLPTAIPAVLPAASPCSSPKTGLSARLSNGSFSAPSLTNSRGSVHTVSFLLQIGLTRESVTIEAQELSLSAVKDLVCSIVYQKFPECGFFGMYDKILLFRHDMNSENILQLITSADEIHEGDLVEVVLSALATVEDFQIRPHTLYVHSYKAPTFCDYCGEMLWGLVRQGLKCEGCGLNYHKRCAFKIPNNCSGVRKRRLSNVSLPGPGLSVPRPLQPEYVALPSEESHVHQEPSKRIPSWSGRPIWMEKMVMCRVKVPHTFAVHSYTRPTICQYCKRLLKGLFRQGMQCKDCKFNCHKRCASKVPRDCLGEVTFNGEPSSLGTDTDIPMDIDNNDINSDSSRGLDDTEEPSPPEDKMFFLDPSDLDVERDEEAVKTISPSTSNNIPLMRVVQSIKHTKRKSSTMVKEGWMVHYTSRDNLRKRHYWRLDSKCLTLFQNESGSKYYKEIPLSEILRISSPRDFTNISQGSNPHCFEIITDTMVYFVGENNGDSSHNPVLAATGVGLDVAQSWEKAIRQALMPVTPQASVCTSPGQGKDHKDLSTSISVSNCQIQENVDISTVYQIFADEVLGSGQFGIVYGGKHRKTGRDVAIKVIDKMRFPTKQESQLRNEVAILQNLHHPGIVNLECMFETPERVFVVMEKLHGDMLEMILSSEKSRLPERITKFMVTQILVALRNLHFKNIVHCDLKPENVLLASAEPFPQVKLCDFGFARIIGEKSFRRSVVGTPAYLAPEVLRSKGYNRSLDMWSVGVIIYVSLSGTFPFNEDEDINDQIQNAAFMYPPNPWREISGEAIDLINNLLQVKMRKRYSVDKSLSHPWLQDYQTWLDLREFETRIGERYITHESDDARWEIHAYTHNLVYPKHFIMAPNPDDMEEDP
# UniProt O95352: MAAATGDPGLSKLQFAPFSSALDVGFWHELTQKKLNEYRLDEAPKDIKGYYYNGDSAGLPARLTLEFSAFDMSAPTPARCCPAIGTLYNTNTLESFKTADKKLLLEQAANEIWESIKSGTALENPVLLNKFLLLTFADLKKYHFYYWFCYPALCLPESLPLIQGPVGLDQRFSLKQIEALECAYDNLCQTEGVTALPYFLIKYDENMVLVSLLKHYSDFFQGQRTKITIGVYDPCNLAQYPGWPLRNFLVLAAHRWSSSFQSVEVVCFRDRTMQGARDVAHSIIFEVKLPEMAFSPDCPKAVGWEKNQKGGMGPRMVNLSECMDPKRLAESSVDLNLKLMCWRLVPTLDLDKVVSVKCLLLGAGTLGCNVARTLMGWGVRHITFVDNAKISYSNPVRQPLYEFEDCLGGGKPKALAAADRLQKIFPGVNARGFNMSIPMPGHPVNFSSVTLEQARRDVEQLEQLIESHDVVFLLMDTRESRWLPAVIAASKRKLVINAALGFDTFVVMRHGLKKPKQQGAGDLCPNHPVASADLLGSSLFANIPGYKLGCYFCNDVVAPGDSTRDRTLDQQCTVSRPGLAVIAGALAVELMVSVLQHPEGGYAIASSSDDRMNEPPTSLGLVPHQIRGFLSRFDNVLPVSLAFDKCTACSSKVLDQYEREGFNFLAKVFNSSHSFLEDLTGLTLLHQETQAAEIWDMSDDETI
# UniProt O95273: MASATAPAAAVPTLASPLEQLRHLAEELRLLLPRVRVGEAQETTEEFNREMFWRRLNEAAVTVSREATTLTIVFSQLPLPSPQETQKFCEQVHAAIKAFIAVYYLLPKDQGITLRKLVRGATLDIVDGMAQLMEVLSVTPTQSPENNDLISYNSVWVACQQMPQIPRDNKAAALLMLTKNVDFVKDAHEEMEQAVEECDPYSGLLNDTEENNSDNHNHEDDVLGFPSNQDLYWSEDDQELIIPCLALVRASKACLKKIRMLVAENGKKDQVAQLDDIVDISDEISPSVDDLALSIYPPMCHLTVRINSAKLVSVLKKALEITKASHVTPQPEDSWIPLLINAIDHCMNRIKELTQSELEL
# UniProt O75348, whole entry: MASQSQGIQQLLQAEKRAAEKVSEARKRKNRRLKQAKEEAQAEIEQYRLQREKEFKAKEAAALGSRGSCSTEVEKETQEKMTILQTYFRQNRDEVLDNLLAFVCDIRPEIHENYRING
# UniProt O94829: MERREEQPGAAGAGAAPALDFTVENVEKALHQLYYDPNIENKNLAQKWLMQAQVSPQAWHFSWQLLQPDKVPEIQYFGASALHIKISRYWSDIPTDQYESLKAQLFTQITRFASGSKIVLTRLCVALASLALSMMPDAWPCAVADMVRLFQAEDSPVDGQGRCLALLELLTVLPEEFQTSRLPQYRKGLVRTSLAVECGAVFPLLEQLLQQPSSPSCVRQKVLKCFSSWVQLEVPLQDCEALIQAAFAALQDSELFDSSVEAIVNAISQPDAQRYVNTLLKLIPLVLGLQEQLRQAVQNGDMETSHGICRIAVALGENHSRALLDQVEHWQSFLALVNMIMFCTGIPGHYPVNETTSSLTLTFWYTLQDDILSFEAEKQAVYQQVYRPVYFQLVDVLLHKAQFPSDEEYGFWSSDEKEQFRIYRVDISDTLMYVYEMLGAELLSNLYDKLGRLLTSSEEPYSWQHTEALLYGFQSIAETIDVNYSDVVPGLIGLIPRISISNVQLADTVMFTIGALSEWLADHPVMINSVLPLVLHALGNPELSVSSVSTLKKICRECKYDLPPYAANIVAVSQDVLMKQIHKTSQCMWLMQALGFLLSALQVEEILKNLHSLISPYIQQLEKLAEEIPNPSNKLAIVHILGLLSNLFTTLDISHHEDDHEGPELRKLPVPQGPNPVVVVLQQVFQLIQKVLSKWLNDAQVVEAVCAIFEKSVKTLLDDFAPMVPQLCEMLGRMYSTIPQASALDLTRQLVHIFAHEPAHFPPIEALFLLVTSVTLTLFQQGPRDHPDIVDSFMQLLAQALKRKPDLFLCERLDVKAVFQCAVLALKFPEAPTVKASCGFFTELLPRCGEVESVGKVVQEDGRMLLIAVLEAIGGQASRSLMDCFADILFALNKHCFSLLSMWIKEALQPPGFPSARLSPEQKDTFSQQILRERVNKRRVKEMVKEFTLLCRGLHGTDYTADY
# ± gives the standard deviation of the averaged measurements. The entries are a selection whose mix differs from that of the whole data set.
# Compound: Nc1ncnc2c1ncn2[C@@H]1O[C@H](COP(=O)(O)OP(=O)(O)OP(=O)(O)O)[C@@H](O)[C@H]1O [adenosine triphosphate]
# Experiment: NP40-soluble protein abundance relative to vehicle (solubility fold change) (ratio); higher = more soluble protein in presence of ATP
# Details: concentration: 2mM
# Outline: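 Each value is a fold change relative to the detergent-processed vehicle, calculated per replicate from vsn-normalised intensities. Jurkat crude lysate received eight concentrations (0.1 to 10 mM) for 10 min at room temperature and 3 min at 37 °C, then was solubilised in 0.8% NP40 with benzonase (60 min, 4 °C). The ultracentrifuged supernatant was TMT-labelled and run by LC-MS/MS in three independent experiments.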
row,Target,NP40-soluble protein abundance
1,UniProt O75935 and related entries,0.913 ± 0.034
2,UniProt O75145 and related entries,0.976 ± 0.014
3,GGCT (UniProt O75223),0.939 ± 0.021
4,SNX3 (UniProt O60493),0.951 ± 0.046
5,CCNT1 (UniProt O60563),1.15 ± 0.018
6,UniProt O95297 and related entries,0.908 ± 0.059
7,UniProt O75190 and related entries,1.1 ± 0.047
8,UniProt O95248-4|G5E933 and related entries,1.05 ± 0.018
9,UniProt O94973 and related entries,1.07 ± 0.05
10,UniProt O75582 and related entries,1.06 ± 0.061
11,HIP1R (UniProt O75146),1.07 ± 0.019
12,YEATS4 (UniProt O95619),0.968 ± 0.011
13,UniProt O75554 and related entries,1.073 ± 0.0093
14,FARS2 (UniProt O95363),1.02 ± 0.046
15,RNGTT (UniProt O60942),1 ± 0.04
16,CCNK (UniProt O75909),1.19 ± 0.018
17,MTRF1 (UniProt O75570),1.03 ± 0.11
18,UniProt O75534 and related entries,0.974 ± 0.04
19,UniProt O75323,0.999 ± 0.05

# In a second layout: entries from further up.
row	Target	NP40-soluble protein abundance
1	UniProt O75935 and related entries	0.913 ± 0.034
2	UniProt O75145 and related entries	0.976 ± 0.014
3	GGCT (UniProt O75223)	0.939 ± 0.021

# (further entries)

row,Target,NP40-soluble protein abundance
1,WDR1 (UniProt O75083),0.947 ± 0.067
2,UniProt O95475,1.1 ± 0.045
3,UniProt O60762 and related entries,1.13 ± 0.087
4,UniProt O94916 and related entries,0.961 ± 0.061
5,PRMT3 (UniProt O60678),1.01 ± 0.068
6,POLR1A (UniProt O95602),1.12 ± 0.016
7,UniProt O75486 and related entries,1.06 ± 0.02
8,WFS1 (UniProt O76024),0.985 ± 0.12
9,TOX (UniProt O94900),0.913 ± 0.034
10,PRKD3 (UniProt O94806),0.992 ± 0.14
11,B3GAT3 (UniProt O94766),0.973 ± 0.038
12,ATG7 (UniProt O95352),0.974 ± 0.039
13,UniProt O75037 and related entries,1.1 ± 0.037
14,UniProt O60888 and related entries,0.949 ± 0.11
15,UniProt O95273 and related entries,1.07 ± 0.028
16,ATP6V1G1 (UniProt O75348),0.889 ± 0.094
17,UniProt O95271 and related entries,1.02 ± 0.011
18,IPO13 (UniProt O94829),0.99 ± 0.094
